# Laboratory results reported in patent US20080255128A1, “PHTHALAZINONE DERIVATIVES” (priority 2007, published 2008).
# Some of these results come from one statement about several compounds together.
# Tested on: HeLa cells
# Assay: Potentiation Factor (PF50) with methyl methanesulfonate (MMS), SRB cell growth assay
# Type: cell-based
# Details: ratio of IC50 of control cell growth to IC50 of cell growth + PARP inhibitor
Compound,mean PF50 (compound at 200 nM),mean PF50 (compound at 1 nM),mean PF50 (compound at 30 nM)
C[C@H]1C(=O)N(c2cc(Cc3n[nH]c(=O)c4ccccc34)ccc2F)C(=O)N1CCNCc1ccccn1 [Compound 26],greater than 2,–,–
C[C@H]1C(=O)N(c2cc(Cc3n[nH]c(=O)c4ccccc34)ccc2F)C(=O)N1CCN1CCCC1c1ccco1 (stereo partly drawn) [Compound 29],greater than 2,–,–
CCC1CCCCN1CCN1C(=O)N(c2cc(Cc3n[nH]c(=O)c4ccccc34)ccc2F)C(=O)[C@@H]1C (stereo partly drawn) [Compound 28],greater than 2,–,–
C[C@H]1C(=O)N(c2cc(Cc3n[nH]c(=O)c4ccccc34)ccc2F)C(=O)N1CCN1CC=CCC1 [Compound 19],–,greater than 2,–
CC(C)N(C)CCN1C(=O)N(c2cc(Cc3n[nH]c(=O)c4ccccc34)ccc2F)C(=O)[C@@H]1C [Compound 17],greater than 2,–,–
C[C@H]1C(=O)N(c2cc(Cc3n[nH]c(=O)c4ccccc34)ccc2F)C(=O)N1CCNCCF [Compound 13],greater than 2,–,–
COCCNCCN1C(=O)N(c2cc(Cc3n[nH]c(=O)c4ccccc34)ccc2F)C(=O)[C@@H]1C [Compound 18],greater than 2,–,–
C=CCN(C)CCN1C(=O)N(c2cc(Cc3n[nH]c(=O)c4ccccc34)ccc2F)C(=O)[C@@H]1C [Compound 14],greater than 2,–,–
CC(C)N(CCO)CCN1C(=O)N(c2cc(Cc3n[nH]c(=O)c4ccccc34)ccc2F)C(=O)[C@@H]1C [Compound 24],greater than 2,–,–
CC1CCCN1CCN1C(=O)N(c2cc(Cc3n[nH]c(=O)c4ccccc34)ccc2F)C(=O)[C@@H]1C (stereo partly drawn) [Compound 20],–,greater than 2,greater than 2
C[C@H]1C(=O)N(c2cc(Cc3n[nH]c(=O)c4ccccc34)ccc2F)C(=O)N1CCN(C)C1CCCCC1 [Compound 27],greater than 2,–,–
C[C@H]1C(=O)N(c2cc(Cc3n[nH]c(=O)c4ccccc34)ccc2F)C(=O)N1CCN1CCCC(O)C1 (stereo partly drawn) [Compound 23],–,–,greater than 2
C[C@H]1C(=O)N(c2cc(Cc3n[nH]c(=O)c4ccccc34)ccc2F)C(=O)N1CCNC(C)(C)C [Compound 16],greater than 2,–,–
CCN(C)CCN1C(=O)N(c2cc(Cc3n[nH]c(=O)c4ccccc34)ccc2F)C(=O)[C@@H]1C [Compound 12],–,greater than 2,greater than 2
C[C@@H]1CN(CCN2C(=O)N(c3cc(Cc4n[nH]c(=O)c5ccccc45)ccc3F)C(=O)[C@@H]2C)C[C@H](C)O1 [Compound 10],–,–,greater than 2
C[C@H]1C(=O)N(c2cc(Cc3n[nH]c(=O)c4ccccc34)ccc2F)C(=O)N1CCN1CCCCC1 [Compound 21],–,greater than 2,greater than 2
"CC1C(=O)N(c2cc(Cc3n[nH]c(=O)c4ccccc34)ccc2F)C(=O)N1CCN1CCCC1 (racemic) [Compound 9, 3-(2-fluoro-5-((4-oxo-3,4-dihydrophthalazin-1-yl)methyl)phenyl)-5-methyl-1-(2-(pyrrolidin-1-yl)ethyl)imidazolidine-2,4-dione]",–,greater than 2,greater than 2
